Laboratory results: publication PMC3045441
These are yes or no findings as the source states them, for the method shown. Binding seen in cells or lysates may run through a third protein. Some entries that bind do so weakly or less than the wild type. Where a sequence is shown, tags or fusion partners need not be part of it.

Target: T1, MYC-tagged full-length mouse RBM44 (second copy FLAG-tagged in the self-association experiment) (mouse) (UniProt Q3V089)
T1 sequence: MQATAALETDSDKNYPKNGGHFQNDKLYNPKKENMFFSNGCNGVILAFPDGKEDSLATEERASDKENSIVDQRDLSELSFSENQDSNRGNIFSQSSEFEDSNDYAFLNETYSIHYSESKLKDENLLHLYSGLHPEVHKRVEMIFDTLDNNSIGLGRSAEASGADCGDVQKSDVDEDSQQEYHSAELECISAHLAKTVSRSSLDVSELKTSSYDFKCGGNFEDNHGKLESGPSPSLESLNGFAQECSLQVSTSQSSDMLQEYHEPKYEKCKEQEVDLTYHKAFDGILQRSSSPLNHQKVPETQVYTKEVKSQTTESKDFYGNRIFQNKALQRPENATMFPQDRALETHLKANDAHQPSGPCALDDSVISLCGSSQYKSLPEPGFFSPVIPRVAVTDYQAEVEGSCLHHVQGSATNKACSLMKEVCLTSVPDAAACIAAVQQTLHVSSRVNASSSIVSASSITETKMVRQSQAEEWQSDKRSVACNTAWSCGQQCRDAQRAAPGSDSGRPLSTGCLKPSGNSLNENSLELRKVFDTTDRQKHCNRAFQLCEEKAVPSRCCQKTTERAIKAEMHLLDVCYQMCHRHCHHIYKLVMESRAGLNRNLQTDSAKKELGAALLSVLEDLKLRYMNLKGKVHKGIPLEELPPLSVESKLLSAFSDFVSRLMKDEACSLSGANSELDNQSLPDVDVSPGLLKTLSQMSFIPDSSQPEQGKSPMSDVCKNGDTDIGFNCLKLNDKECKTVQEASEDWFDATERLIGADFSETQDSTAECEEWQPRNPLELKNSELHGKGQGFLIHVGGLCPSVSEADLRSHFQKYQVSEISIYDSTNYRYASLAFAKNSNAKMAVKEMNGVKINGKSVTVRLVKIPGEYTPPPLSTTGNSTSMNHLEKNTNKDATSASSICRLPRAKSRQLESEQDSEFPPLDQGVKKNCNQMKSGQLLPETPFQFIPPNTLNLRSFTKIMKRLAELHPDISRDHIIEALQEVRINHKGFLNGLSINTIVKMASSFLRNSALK
Assay: co-IP; flag-tagged Tex14 or Rbm44 vector co-transfected with myc-tagged Rbm44 vector in HEK293T; immunoprecipitation with anti-FLAG or anti-MYC antibodies, western blot with anti-FLAG or anti-MYC; Protein G as control

binding: binds
B1: FLAG-tagged full-length mouse TEX14 (protein, UniProt Q7M6U3 1-1450)
chain: MSRGAPFPVPCPVLLGTFTDDSLEAQLHEYAKQGNCVKLKKILKKGVCVDAVNTQGQSALFVAALLGHVKLVDVLVDYGSDPNHRCFDGSTPVHAAAFSGNQWILSKLLTAGGDLRLHDEKGRNPQAWALTAGKDRSTQMVEFMQRCTSHMKAIIQGFSYDLLKKIDSPQRLIGSPPWFGSLIQGSPNSSPNRQLKPGIISAQNIYSFGFGKFYLTSGMQLTYPGSLPVIGEKEVVQADDEPTFSFFSGPYMVMTNLVWNRSRVTVKELNLPTRPHCSRLRLADLLIAEQEHSSNLRHPNLLQLMAVCLSRDLEKIRLVYERITVGTLFSVLHERRSQFPVLHMEVIVHLLLQVADALIYLHSRGFIHRSLSSYAVHIVSAGEARLTNLEYLTESQDSGAHRNVTRMPLPTQLYNWAAPEVVLQKAATVKSDIYSFSVIIQEILTDSIPWNGLDGSLVKETIALGNYLEADVRLPEPYYDIVKSGIHAKQKNRTMNLQDIRYILKNDLKEFIGAQKTQPTESPRGQSYEPHPDVNICLGLTSEYQKDPPDLDIKELKEMGSQPHSPTDHSFLTVKPTLAPQTLDSSLSAQKPDNANVPSPPAACLAEEVRSPTASQDSLCSFEINEIYSGCLTLGTDKEEECLGTAASPEGDRPNQGDELPSLEEELDKMERELHCFCEEDKSISEVDTDLLFEDDDWQSDSLGSLNLPEPTREAKGKTSSWSKTDEYVSKCVLNLKISQVMMQQSAEWLRKLEQEVEELEWAQKELDSQCSSLRDASLKFANAKFQPAVGPPSLAYLPPVMQLPGLKQPENGGTWLTLARSPGNEREFQEGHFSKKPEKLSACGWKPFTQVSEESRGDCSELNNQLPTLRGPGKQSTGEQLPSTQEARESLEKNTNQNSRSMASVSSEIYATKSRNNEDNGEAHLKWRLAVKEMAEKAVSGQLLLPPWNPQSSAPFESKVENESTPLPRPPIRGPESTEWQHILEYQRENDEPKGNTKFGKMDNSDCDKNKHSRWTGLQRFTGIRYPFFRNHEQPEQNEASQASCDTSVGTEKFYSTSSPIGDDFERFQDSFAQRQGYVEENFQIREIFEKNAEILTKPQFQAIQCAEDKQDETLGETPKELKEKNTSLTDIQDLSSITYDQDGYFKETSYKTPKLKHAPTSASTPLSPESISSAASHYEDCLENTTFHVKRGSTFCWNGQEAMRTLSAKFTTVRERAKSLESLLASSKSLPAKLTDSKRLCMLSETGSSNVSAAFVTSTHATKRKSLPRELAEATSQQHLDELPPPAQELLDEIEQLKQQQVSSLASHENTARDLSVTNKDKKHLEEQETNSSKDSSFLSSREIQDLEDTERAHSSLDEDLERFLQSPEENTALLDPTKGSTREKKNKDQDVVEQKRKKKESIKPERRESDSSLGTLEEDELKPCFWKRLGWSEPSRIIVLDQSDLSD
